Reference: US20250186432A1, “SPLEEN TYROSINE KINASE INHIBITOR, COMPOSITION, AND METHODS OF USE” (PURDUE RESEARCH FOUNDATION, priority 2022, published 2025)
Some entries share one result that the patent states for a list of compounds. At least one structure is not confirmed: it was looked up by name or label, or the drawing left a doubt.

Each molecule was assayed on growth factor receptor kinases (assay: Potency for Syk compared to growth factor receptor kinases). Details: Syk vs HGFR, EGFR, VEGFR, IGF1R, FGFR3.
Format: biochemical

| fold more potent for Syk than for growth factor receptor kinases | Structure (SMILES) |
| --- | --- |
| < 20 fold | CCS(=O)(=O)N1CCN(c2ccc(Nc3ncc(C(N)=O)c(NC4CC4)n3)cc2)CC1 [Cerdulatinib] |
| at least 20 fold | NCCNc1ncc(C(N)=O)c(Nc2cccc(C(F)(F)F)c2)n1 [Syk II] |

Second part, the molecule before the results:

| Structure (SMILES) | fold more potent for Syk than for growth factor receptor kinases |
| --- | --- |
| CCn1c(=O)c(-c2cc(NC(=O)Nc3ccccc3)c(F)cc2Br)cc2cnc(NC)cc21 [Ripretinib] | ≤ 20 fold |
| Cn1cc(-c2cc3c(N4CCN(c5ncc([C@@](C)(N)c6ccc(F)cc6)cn5)CC4)ncnn3c2)cn1 [Avapritinib] | ≤ 20 fold |
| Cc1cc(Nc2ncnc3ccc(NC4=NC(C)(C)CO4)cc23)ccc1Oc1ccn2ncnc2c1 [Tucatinib] | ≤ 20 fold |
